Measurements published in patent publication US20040014149A1 (RIGEL PHARMACEUTICALS, published 2004).
These are yes or no findings as the source states them, for the method shown. Some binding calls cover weakened binding; strength is not graded here.

T1: human thioredoxin-like 32 kDa protein (hTXNL) (human) (UniProt O43396)
T1 sequence: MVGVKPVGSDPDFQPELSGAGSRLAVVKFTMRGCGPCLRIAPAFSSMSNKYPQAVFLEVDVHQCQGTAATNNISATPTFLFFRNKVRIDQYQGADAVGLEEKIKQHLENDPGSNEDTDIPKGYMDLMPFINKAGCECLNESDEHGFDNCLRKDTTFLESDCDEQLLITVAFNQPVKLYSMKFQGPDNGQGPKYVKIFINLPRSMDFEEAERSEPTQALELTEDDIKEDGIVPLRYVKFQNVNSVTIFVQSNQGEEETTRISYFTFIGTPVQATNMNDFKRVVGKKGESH


Experiments:
[1] = target: T1, human thioredoxin-like 32 kDa protein (hTXNL) (human); test: yeast two-hybrid assay
[2] = target: T1, human thioredoxin-like 32 kDa protein (hTXNL) (human); test: yeast two-hybrid interaction assay
[3] = target: T1, human thioredoxin-like 32 kDa protein (hTXNL) (human); test: yeast two-hybrid, beta-galactosidase read-out, interaction profile compared with functional profile

| Binder | binding [1] | binding [2] | binding [3] |
| --- | --- | --- | --- |
| PERCYMRMPPQSLADAQIYS (peptide, not shown: large carriers) [peptide DR15wt] | binds | binds | binds |
| AARCYMRMPPQSLADAQIYS (peptide, not shown: large carriers) [peptide DR15PE] | binds | binds | – |
| PERCYMRMPPQSLADAAAYS (peptide, not shown: large carriers) [peptide DR15QI] | binds | binds | – |
| PERCAARMPPQSLADAQIYS (peptide, not shown: large carriers) [peptide DR15YM] | binds | binds | – |
